Counter-ions that a name gives are not always drawn. ± gives the standard deviation of the averaged measurements. This is one part of the list. The data scatter; read single values as rough.
Tests used:
hAMSC donor 1 [1] = assay: Hoechst total cell count ratio vs vehicle control; higher = more cells (less toxicity)
hAMSC donor 2 [2] = assay: as above
hAMSC donor 1 [3] = assay: transgenic luciferase activity (RLU/mg protein) fold change vs vehicle control (ratio); higher = more transgene expression
hAMSC donor 1 [4] = assay: transfection efficiency (EGFP+ cells / Hoechst count) fold change vs vehicle control (ratio); higher = enhanced transfection
hAMSC donor 2 [5] = assay: as above
hAMSC donor 2 [6] = assay: transgenic luciferase activity (RLU/mg protein) fold change vs vehicle control (ratio); hAMSC are human adipose-derived mesenchymal stem cells given an EGFP-luciferase plasmid by lipofection; higher = more transgene expression
[7] = priming compound concentration 0.2 µM
[8] = priming compound concentration 1.7 µM
[9] = priming compound concentration 13 µM

| Compound | Hoechst total cell count ratio (hAMSC donor 1 [1]; [7]) | Hoechst total cell count ratio (hAMSC donor 1 [1]; [8]) | Hoechst total cell count ratio (hAMSC donor 1 [1]; [9]) | Hoechst total cell count ratio (hAMSC donor 2 [2]; [7]) | Hoechst total cell count ratio (hAMSC donor 2 [2]; [8]) | Hoechst total cell count ratio (hAMSC donor 2 [2]; [9]) | transgenic luciferase activity (hAMSC donor 1 [3]; [9]) | transfection efficiency (hAMSC donor 1 [4]; [7]) | transfection efficiency (hAMSC donor 1 [4]; [8]) | transfection efficiency (hAMSC donor 1 [4]; [9]) | transfection efficiency (hAMSC donor 2 [5]; [7]) | transfection efficiency (hAMSC donor 2 [5]; [8]) | transfection efficiency (hAMSC donor 2 [5]; [9]) | transgenic luciferase activity (hAMSC donor 2 [6]; [9]) | transgenic luciferase activity (hAMSC donor 1 [3]; [7]) | transgenic luciferase activity (hAMSC donor 2 [6]; [8]) |
| --- | --- | --- | --- | --- | --- | --- | --- | --- | --- | --- | --- | --- | --- | --- | --- | --- |
| CCOC(=O)OC(C)OC1=C(C(=O)Nc2ccccn2)N(C)S(=O)(=O)c2ccccc21 (centres undefined) [Ampiroxicam] | 1.21 ± 0.081 | 1.21 ± 0.2 | 0.991 ± 0.15 | 1.3 ± 0.07 | 1.03 ± 0.16 | 0.996 ± 0.17 | 0.903 ± 0.1 | 1.06 ± 0.17 | 1.03 ± 0.076 | 1.27 ± 0.39 | 0.932 ± 0.083 | 1.23 ± 0.26 | 1.56 ± 0.66 | – | – | – |
| CC(CCCCC(=O)Nc1ccc(C(F)(F)F)cc1)NCCc1cnc[nH]1 (centres undefined) [HTMT dimaleate] | 1.47 ± 0.17 | 1.3 ± 0.23 | 1.39 ± 0.038 | 0.987 ± 0.081 | 0.999 ± 0.021 | 0.952 ± 0.068 | – | 0.752 ± 0.064 | 0.949 ± 0.18 | 0.881 ± 0.1 | 0.942 ± 0.29 | 1.19 ± 0.15 | 0.711 ± 0.033 | 0.677 ± 0.13 | – | – |
| COc1cc2c(cc1OC)C(=O)C(CC1CCN(Cc3ccccc3)CC1)C2 (centres undefined) [Donepezil hydrochloride] | 1.15 ± 0.042 | 0.896 ± 0.24 | 0.935 ± 0.029 | 1.2 ± 0.31 | 1.03 ± 0.044 | 0.984 ± 0.073 | – | 1.74 ± 1.6 | 1.43 ± 0.69 | 0.999 ± 0.14 | 1.12 ± 0.33 | 1.27 ± 0.26 | 1.28 ± 0.057 | 0.546 ± 0.01 | – | – |
| Cc1cccc(CCN2CCC(C(=O)c3ccc(NS(C)(=O)=O)cc3)CC2)n1 [E-4031 dihydrochloride] | – | – | – | – | – | – | – | 1.33 ± 0.25 | 1 ± 0.11 | 0.985 ± 0.35 | 0.855 ± 0.091 | 0.938 ± 0.06 | 0.899 ± 0.21 | – | 0.876 ± 0.26 | – |
| CCCCc1nc(Cl)c(CO)n1Cc1ccc(-c2ccccc2-c2nnn[nH]2)cc1 [Losartan potassium] | 0.91 ± 0.15 | 1.49 ± 0.3 | 1.35 ± 0.027 | 1.03 ± 0.085 | 1.08 ± 0.028 | 1.11 ± 0.22 | – | 0.86 ± 0.17 | 0.891 ± 0.19 | 1.11 ± 0.14 | 0.92 ± 0.071 | 1.09 ± 0.11 | 1.21 ± 0.32 | 0.64 ± 0.097 | – | – |
| CCOC(=O)[C@H](CCc1ccccc1)N[C@@H](C)C(=O)N1[C@H](C(=O)O)C[C@@H]2CCC[C@@H]21 [Ramipril] | 1.33 ± 0.11 | 1.09 ± 0.068 | 1.18 ± 0.22 | 0.814 ± 0.092 | 1.24 ± 0.083 | 1.44 ± 0.063 | 0.525 ± 0.2 | 0.787 ± 0.11 | 1.11 ± 0.18 | 0.703 ± 0.021 | 1.52 ± 0.1 | 1.25 ± 0.13 | 0.698 ± 0.049 | – | – | – |
| COC(=O)C1=C(C)NC(C)=C(C(=O)OC)C1c1ccccc1[N+](=O)[O-] [Nifedipine] | 1.46 ± 0.12 | 1.45 ± 0.089 | 1.32 ± 0.078 | 0.963 ± 0.17 | 1.08 ± 0.14 | 1.25 ± 0.22 | – | 0.842 ± 0.088 | 0.949 ± 0.12 | 0.887 ± 0.098 | 1.19 ± 0.23 | 1.24 ± 0.025 | 1.13 ± 0.36 | – | 0.862 ± 0.41 | – |
| O=C(NCCO[N+](=O)[O-])c1cccnc1 [Nicorandil] | 1.47 ± 0.2 | 1.22 ± 0.12 | 1.82 ± 0.17 | 1.37 ± 0.065 | 1.05 ± 0.071 | 1.03 ± 0.024 | – | 1.04 ± 0.02 | 1.36 ± 0.25 | 0.654 ± 0.33 | 0.848 ± 0.23 | 1.3 ± 0.2 | 1.05 ± 0.027 | 0.584 ± 0.2 | – | – |
| CC(=O)OCC(=O)NCCCOc1cccc(CN2CCCCC2)c1 [Roxatidine acetate hydrochloride] | 1.46 ± 0.063 | 1.14 ± 0.25 | 1.27 ± 0.16 | 0.886 ± 0.16 | 1.11 ± 0.036 | 1.43 ± 0.026 | – | 0.743 ± 0.05 | 1.14 ± 0.11 | 1.12 ± 0.072 | 1.19 ± 0.13 | 1.27 ± 0.074 | 1.26 ± 0.15 | – | – | 0.68 ± 0.04 |
| CC(C)NCC(O)COc1ccc(CCOCC2CC2)cc1 (centres undefined) [Betaxolol hydrochloride] | 1.54 ± 0.23 | 1.41 ± 0.063 | 1.31 ± 0.096 | 1.14 ± 0.051 | 1.37 ± 0.054 | 1.3 ± 0.23 | 0.698 ± 0.12 | 1.06 ± 0.14 | 0.869 ± 0.16 | 0.907 ± 0.11 | 0.979 ± 0.081 | 0.92 ± 0.15 | 0.859 ± 0.29 | – | – | – |
| C/C=C1\[C@H]2C=C(C)C[C@]1(N)c1ccc(=O)[nH]c1C2 [Huperzine A] | 1.51 ± 0.068 | 1.54 ± 0.18 | 1.58 ± 0.21 | 1.06 ± 0.078 | 0.984 ± 0.22 | 1.31 ± 0.31 | – | 0.971 ± 0.12 | 1.1 ± 0.17 | 0.923 ± 0.21 | 0.994 ± 0.083 | 1.23 ± 0.071 | 1.21 ± 0.35 | – | – | 0.969 ± 0.34 |
| COc1ccc(-c2cc(=O)c3c(OC)c(OC)c(OC)c(OC)c3o2)cc1OC [Nobiletin] | 1.1 ± 0.067 | 1.11 ± 0.015 | 1.08 ± 0.092 | 1.41 ± 0.39 | 1.07 ± 0.098 | 1.41 ± 0.32 | 0.699 ± 0.24 | 1.16 ± 0.25 | 1.28 ± 0.07 | 0.822 ± 0.063 | 0.832 ± 0.27 | 1.14 ± 0.31 | 0.943 ± 0.2 | – | – | – |
| O=C1N[C@H](C(=O)O)CS1 [Procysteine] | 1.46 ± 0.1 | 1.07 ± 0.2 | 1.15 ± 0.079 | 1.28 ± 0.17 | 1.17 ± 0.13 | 1.06 ± 0.062 | – | 0.925 ± 0.041 | 1.22 ± 0.43 | 1.12 ± 0.2 | 0.929 ± 0.2 | 1.29 ± 0.15 | 1.01 ± 0.17 | 0.67 ± 0.18 | – | – |
| N=C(N)NC(=O)c1nc(Cl)c(N)nc1N [Amiloride hydrochloride hydrate] | 1.48 ± 0.2 | 1.27 ± 0.14 | 1.36 ± 0.061 | 1.22 ± 0.074 | 1.2 ± 0.065 | 1.49 ± 0.065 | – | 1.07 ± 0.3 | 1.26 ± 0.36 | 1.04 ± 0.11 | 0.913 ± 0.21 | 1.14 ± 0.085 | 1.14 ± 0.11 | – | – | 0.53 ± 0.089 |
| CN(C/C=C/C#CC(C)(C)C)Cc1cccc2ccccc12 [Terbinafine hydrochloride] | 1.608 ± 0.0092 | 1.3 ± 0.15 | 1.26 ± 0.048 | 1.22 ± 0.13 | 1.23 ± 0.025 | 1.38 ± 0.23 | – | 0.954 ± 0.12 | 1.29 ± 0.23 | 1.06 ± 0.23 | 0.998 ± 0.17 | 1.26 ± 0.056 | 1.41 ± 0.15 | – | – | 0.561 ± 0.1 |

In another format: entries from further up.
Compound,Hoechst total cell count ratio (hAMSC donor 1 [1]; [7]),Hoechst total cell count ratio (hAMSC donor 1 [1]; [8]),Hoechst total cell count ratio (hAMSC donor 1 [1]; [9]),Hoechst total cell count ratio (hAMSC donor 2 [2]; [7]),Hoechst total cell count ratio (hAMSC donor 2 [2]; [8]),Hoechst total cell count ratio (hAMSC donor 2 [2]; [9]),transgenic luciferase activity (hAMSC donor 1 [3]; [9]),transfection efficiency (hAMSC donor 1 [4]; [7]),transfection efficiency (hAMSC donor 1 [4]; [8]),transfection efficiency (hAMSC donor 1 [4]; [9]),transfection efficiency (hAMSC donor 2 [5]; [7]),transfection efficiency (hAMSC donor 2 [5]; [8]),transfection efficiency (hAMSC donor 2 [5]; [9]),transgenic luciferase activity (hAMSC donor 2 [6]; [9]),transgenic luciferase activity (hAMSC donor 1 [3]; [7]),transgenic luciferase activity (hAMSC donor 2 [6]; [8])
CCCCc1nc(Cl)c(CO)n1Cc1ccc(-c2ccccc2-c2nnn[nH]2)cc1 [Losartan potassium],0.91 ± 0.15,1.49 ± 0.3,1.35 ± 0.027,1.03 ± 0.085,1.08 ± 0.028,1.11 ± 0.22,–,0.86 ± 0.17,0.891 ± 0.19,1.11 ± 0.14,0.92 ± 0.071,1.09 ± 0.11,1.21 ± 0.32,0.64 ± 0.097,–,–
CCOC(=O)[C@H](CCc1ccccc1)N[C@@H](C)C(=O)N1[C@H](C(=O)O)C[C@@H]2CCC[C@@H]21 [Ramipril],1.33 ± 0.11,1.09 ± 0.068,1.18 ± 0.22,0.814 ± 0.092,1.24 ± 0.083,1.44 ± 0.063,0.525 ± 0.2,0.787 ± 0.11,1.11 ± 0.18,0.703 ± 0.021,1.52 ± 0.1,1.25 ± 0.13,0.698 ± 0.049,–,–,–

— the supplement of paper PMC7238544
